Reference: patent publication US7893021B2, “Parathyroid hormone antagonists and uses thereof” (Scantibodies Laboratory, Inc., priority 1999, dated 2011)
Where two headings read alike, the source gives them in different places.

B1: hPTH 1-84: Synthetic human PTH 1-84, the whole 84 amino acid parathyroid hormone (SEQ ID NO:1), PTH agonist, purchased from Bachem (peptide)
chain: SVSEIQLMHNLGKHLNSMERVEWLRKKLQDVHNFVALGAPLAPRDAGSQRPRKKEDNVLVESHEKSLGEANKADVNVLTKAKSQ
B2: hPTH 7-84: Synthetic human PTH 7-84 fragment, an exemplary PTH antagonist, obtained from Bachem (peptide)
peptide: LMHNLGKHLNSMERVEWLRKKLQDVHNFVALGAPLAPRDAGSQRPRKKEDNVLVESHEKSLGEANKADVNVLTKAKSQ

Tests used:
[1] = test system: antibodies recognizing the 39-84 region and the first six amino acids (1 to 6) of the human PTH molecule; experiment: Whole PTH IRMA assay, recognition of PTH peptides; design: species or system goat; conditions: concentrations as high as 10,000 pg/mL
Text: (§1) This new Whole PTH two-site assay (Scantibodies Laboratories, Santee, Calif., USA) first employees and antibody that recognizes the 39-84 region of the PTH molecule. This antibody, produced in a goat and affinity purified, is present in relative excess and is immobilized onto polystyrene-coated tubes. The second antibody, also developed in a goat, was also affinity purified and recognizes only the first six amino acids (1 to 6; Ser-Val-Ser-Glu-Ile-Gln) of the human PTH molecule (FIG. 1). This anti-hPTH assay uses synthetic human PTH 1-84 as the standard, with a limit of detection of approximately 1 to 2 pg/mL. Normal values range from 5 to 35 pg/mL. […] The Whole PTH assay was compared with the Intact PTH assay purchases from the Nichols Institute (I-Nichols, San Jan Capistrano, Calif., USA). Synthetic human PTH 1-84 and 7-84 were purchased from Bachem (Torrance, Calif. USA). To assess circulating levels of hPTH 1-84 and non-(1-84) PTH, heparinized blood samples were obtained before dialysis from 28 patients who had been maintained on chronic hemodialysis for 1.2 to 7.5 years and from 14 renal transplant patients (1 to 6 years).

[2] = Nichols Intact (I-Nichols) PTH assay, recognition of PTH peptides
Text: as §1

| Molecule | detection by the Whole PTH assay [1] | discrimination from hPTH 1-84 by the Nichols intact PTH assay [2] | discrimination from hPTH 1-84 by the Nichols intact PTH assay ([2]; listed as 7-84) |
| --- | --- | --- | --- |
| B1 | detected with a high degree of sensitivity | – | – |
| B2 | undetectable | does not differentiate | did not discriminate |
